Measured values: PubChem BioAssay AID1671190 (National Center for Advancing Translational Sciences (NCATS), 2021)
Screen size: about 580,000 compounds; about 6,100 (1.1%) were called active. Inconclusive results, whose numbers are uncertain, are shown with a selection of clear calls. The call rests on the fitted dose curve; in most records, active means well fitted inhibition curve with a large enough effect; inconclusive means small, poorly fitted or top-dose-only effect, or another doubt; inactive means no such curve, though single readings can be large or run the other way. Potencies of inconclusive entries are doubtful fits and often do not repeat.

Amino acid sequences for entries named in this document (tags omitted).
UniProt P18054, whole entry, looked up: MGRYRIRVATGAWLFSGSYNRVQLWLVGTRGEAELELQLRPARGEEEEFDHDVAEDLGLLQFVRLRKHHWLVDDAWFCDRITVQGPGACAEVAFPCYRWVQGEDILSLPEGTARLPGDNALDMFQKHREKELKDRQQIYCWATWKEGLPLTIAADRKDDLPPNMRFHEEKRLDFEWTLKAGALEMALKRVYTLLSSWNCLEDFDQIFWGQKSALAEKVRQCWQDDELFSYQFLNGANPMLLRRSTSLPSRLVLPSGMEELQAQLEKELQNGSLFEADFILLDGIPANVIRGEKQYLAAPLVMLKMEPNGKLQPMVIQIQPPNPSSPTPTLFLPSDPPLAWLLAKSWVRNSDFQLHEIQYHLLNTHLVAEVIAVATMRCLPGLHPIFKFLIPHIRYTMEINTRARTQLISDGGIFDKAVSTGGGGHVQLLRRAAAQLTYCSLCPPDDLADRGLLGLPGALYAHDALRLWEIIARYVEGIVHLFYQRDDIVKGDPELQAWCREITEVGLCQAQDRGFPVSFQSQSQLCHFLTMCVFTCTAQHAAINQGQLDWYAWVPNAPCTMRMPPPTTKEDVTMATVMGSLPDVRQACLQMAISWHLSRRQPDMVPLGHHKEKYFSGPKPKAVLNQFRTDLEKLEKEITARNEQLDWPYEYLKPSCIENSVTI

target: Polyunsaturated fatty acid lipoxygenase ALOX12 (Homo sapiens) (UniProt P18054); assay: Primary qHTS assay for inhibitors of human arachidonate 12S-lipoxygenase (ALOX12): Round 2; details: purified 12hLO, xylenol orange hydroperoxide absorbance; series mostly up to 108 µM
Method in brief: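 Purified human 12hLO (150 nM final) in 25 mM Hepes, 0.01% Triton X-100, pH 7.0 was preincubated 15 min at room temperature with compound. Then 40 uM arachidonic acid was added, 30 min. Hydroperoxide was read by Fe-XO absorbance ratio 573/405 nm.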
Potency means the concentration at half of the fitted maximal effect.

| SMILES | Potency |
| --- | --- |
| NC(=S)N/N=C1\CC(n2nnnc2-c2ccccc2Cl)C2COC1O2 (stereo not given) | inconclusive: 14.1 µM [inhibitor, full curve, poor fit] |
| O=C(O)C[C@@H]1CCN(C(=O)Nc2cccc(C(F)(F)F)c2)C[C@@H]1CC1=NCCc2cc(F)ccc21 | inconclusive: 20 µM [inhibitor, full curve] |
| Cc1cn2nc(C(=O)NCc3ccc(Br)cc3)cc2c(N2CCCC2)n1 | inactive |
| O=C(CCC1CCCC1)NCC1CN(Cc2ccccc2)CCO1 (stereo not given) | inactive |
| CCCCc1c(-c2ccc(Br)cc2)ncn1CCc1ccccc1OC | inconclusive: 44.7 µM [inhibitor, partial curve, poor fit] |
| CCOC(=O)c1ccc(NC(=O)CSc2n[nH]c(-c3ccncc3)n2)cc1 | inactive |
| COc1cc(-c2nnc(NC(=O)c3ccc(S(=O)(=O)N4CCOCC4)cc3)o2)cc(OC)c1OC | inactive |
| CC(C)(C)c1nnc2sc(SCC(=O)N3CCCCC3)nn2c1=O | inconclusive: 39.8 µM [inhibitor, partial curve, poor fit] |
| CCCCn1c2ccc(F)cc2c2nnc(SCCN3CCCCC3)nc21 | inconclusive: 50.1 µM [inhibitor, partial curve, poor fit] |
| COc1ccc(-c2cc(=O)oc3cc4occ(-c5ccc(F)cc5)c4cc23)cc1 | inconclusive: 44.7 µM [inhibitor, partial curve, poor fit] |
| COc1ccc(-c2noc([C@@H]3C[C@@H](O)CN3Cc3ccc(CO)o3)n2)cc1 | active: 44.7 µM |
| O=S(=O)(NCC(c1ccco1)S(=O)(=O)c1cccs1)c1ccc(F)c(C(F)(F)F)c1 (stereo not given) | inconclusive: 44.7 µM [inhibitor, partial curve, poor fit] |
| Clc1nccc(NCc2ccccc2)n1 | inconclusive: 39.8 µM [inhibitor, partial curve, poor fit] |
| Cc1cc(C(=O)CSc2nc3ccc(Cl)cc3[nH]2)c(C)n1C | inactive |
| O=c1[nH]c(=S)n(-c2ccc(Br)cc2)c2ncccc12 | inconclusive: 1.78 µM [inhibitor, full curve, poor fit] |
| COCCCNC(=O)CSc1ccsc1[N+](=O)[O-] | inconclusive: 112 µM [inhibitor, single point] |
| CN(Cc1ccc(Br)cc1)CC(O)COc1cccc(Br)c1 (stereo not given) | active: 0.891 µM |
| O=C(NC1CCOCC1)c1ccc2c(c1)OCCN(c1cccc(OC(F)(F)F)c1)C2 | inactive |
| O=C1NC2(CCN(Cc3ccc(C(F)(F)F)cc3)C2)Oc2ccccc21 (stereo not given) | inconclusive: 20 µM [inhibitor, full curve] |
| Cc1cc(C)nc(NC(=S)Nc2cccc(F)c2)c1 | inconclusive: 2.82 µM [inhibitor, full curve, poor fit] |
| COc1cc(/C=C(/C#N)C(=O)c2c[nH]c3cc(F)ccc23)cc(OC)c1 | inconclusive: 31.6 µM [inhibitor, partial curve, poor fit] |
| O=C(Nc1cc(F)ccc1F)c1cnn2c(C(F)F)cc(C3CC3)nc12 | inconclusive: 31.6 µM [inhibitor, single point] |

| SMILES | Potency |
| --- | --- |
| C[C@@H]1CN([C@H](C)CO)C(=O)CCCn2nncc2CO[C@H]1CN(C)S(=O)(=O)c1ccc(Oc2ccccc2)cc1 | inactive |
| CCn1cc(S(=O)(=O)N2CCCOCCNC(=O)[C@@H]3CCC[C@@H]32)cn1 | inactive |
| Cc1nc2c(-c3ccc(F)cc3)c(C)nn2c(C)c1CCC(=O)N1CCC(Cc2ccccc2)CC1 | inconclusive: 39.8 µM [inhibitor, partial curve, poor fit] |
| O=C(CNC(=O)c1ccc(Cl)cc1)OC1CCOC1=O (stereo not given) | inactive |
| Cc1ccc(NC(=O)COC(=O)CCc2c[nH]c3ccccc23)cc1 | inconclusive: 2.82 µM [inhibitor, full curve, poor fit] |
| COc1ccc(/C(O)=C2\C(=O)C(=O)N(Cc3ccco3)C2c2ccc(OC)cc2OC)cc1 (stereo not given) | active: 14.1 µM |
| CCc1ccc(C2CC(=O)N3CN(Cc4ccccc4)CSC3=C2C#N)cc1 (stereo not given) | active: 3.16 µM |
| CCn1ccc(C(=O)N2CCC3(CCC3NC(=O)COC)CC2)n1 (stereo not given) | inactive |
| CCOC(=O)C1(C)CCCN1C(=O)c1csnn1 (stereo not given) | inconclusive: 31.6 µM [inhibitor, single point] |
| COCCC1(NC(=O)c2ccccc2)CCN(C(=O)c2ocnc2C)CC1 | inconclusive: 5.01 µM [inhibitor, partial curve, poor fit] |
| CCc1ccccc1NC(=O)Nc1cc(C(=O)NCc2ccc(C(C)C)cc2)ccc1N1CCCC1 | inactive |
| COc1ccc(C2=Nc3ccccc3N(C(=O)c3ccc(C(F)(F)F)cc3)C2C(=O)NCc2ccccc2)cc1 (stereo not given) | inconclusive: 3.98 µM [inhibitor, full curve, poor fit] |
| CC1CCCN(Cc2c(O)ccc3c(=O)c(Oc4ccccc4Cl)c(C(F)(F)F)oc23)C1 (stereo not given) | inactive |
| COCC(=O)Nc1nc2c(s1)C[C@@H]1[C@](C)(CO)[C@H](O)CC[C@@]1(C)[C@@H]2CC(=O)NCc1cccnc1 | inconclusive: 35.5 µM [inhibitor, full curve, poor fit] |
| CCc1ccccc1NC(=O)CN1CCN(C(=O)CNC(=O)Cc2cccc3ccccc23)CC1 | inconclusive: 141 µM [inhibitor, single point] |
| Cc1ccc(S(=O)(=O)c2cn(Cc3ccccc3F)c3cc4c(cc3c2=O)OCO4)cc1 | inconclusive: 112 µM [inhibitor, partial curve, poor fit] |
| COCCN1Cc2cc(C(=O)OC)c3c(c2C1=O)c1cc(F)ccc1n3S(=O)(=O)c1ccc(C)cc1 | inconclusive: 5.62 µM [inhibitor, full curve] |
| CC1=NCC(C)c2c1[nH]c1ccccc21 (stereo not given) | inconclusive: 0.0794 µM [inhibitor, full curve, poor fit] |
| CN(C)Cc1cccc(-c2cc3c(ccn3Cc3cccnc3)c(C3=CCOCC3)n2)c1 | inactive |
| CC(=O)C1=C(O)C(=O)N(c2cccc(Br)c2)C1c1ccccc1Cl (stereo not given) | active: 17.8 µM |
| CO[C@@H]1[C@@H](O)[C@H](O)[C@@H](n2c3c(Cl)cccc3c3c4c(c5c6cccc(Cl)c6[nH]c5c32)C(=O)NC4=O)O[C@@H]1CO | inconclusive: 24.3 µM [inhibitor, partial curve, poor fit] |
| CCCCCCn1c(=O)[nH]c2nc3cc(N)c(C)cc3nc2c1=O | inconclusive: 44.7 µM [inhibitor, partial curve, poor fit] |

Reformatted with tabs: part of the list above
SMILES	Potency
CN(C)Cc1cccc(-c2cc3c(ccn3Cc3cccnc3)c(C3=CCOCC3)n2)c1	inactive
CC(=O)C1=C(O)C(=O)N(c2cccc(Br)c2)C1c1ccccc1Cl (stereo not given)	active: 17.8 µM

The listing continues.

| SMILES | Potency |
| --- | --- |
| Cc1ccc(C)c(/C=C/c2ccc3cccc(O)c3n2)c1 | inactive |
| O=C(CN1CCOCC1)OCCCC1CCCCC1 | inconclusive: 70.8 µM [inhibitor, partial curve, poor fit] |
| Cc1nn(C)c(C(=O)NC(=S)Nc2ccccc2Br)c1Cl | inconclusive: 3.55 µM [inhibitor, partial curve, poor fit] |
| O=Cc1cnc2ccccc2c1-c1ccccc1 | inactive |
| CN(C)c1cccc(Nc2cc3c(cn2)cc(-c2cnn(C)c2)n3C)c1 | inconclusive: 10 µM [inhibitor, partial curve, poor fit] |
| COc1cccc(Nc2c(F)c(F)c(F)c(F)c2C(=O)O)c1 | inconclusive: 7.94 µM [inhibitor, full curve, poor fit] |
| O=C(CN1CC2CC(C1)[C@H]1CCCC(=O)N1C2)N1CCCC1 (stereo not given in full) | inconclusive: 1 µM [inhibitor, full curve, poor fit] |
| C=CCNCCCOc1ccc(C(C)(C)c2ccccc2)cc1 | inconclusive: 6.31 µM [inhibitor, full curve, poor fit] |
| O=C1CN(C(=O)c2ccccc2Br)C(c2ccc(F)cc2)c2cc(F)ccc2N1 (stereo not given) | inconclusive: 100 µM [inhibitor, single point] |
| COc1ccccc1CSc1nc2ccccc2s1 | inactive |
| CC(C)(CNC(=O)CNC(=O)C1CCCCC1)N1CCOCC1 | inconclusive: 3.98 µM [inhibitor, full curve, poor fit] |
| C/C(=N\NS(=O)(=O)c1ccccc1)c1ccc2c(c1)OCCO2 | inconclusive: 141 µM [inhibitor, partial curve, poor fit] |
| CCc1nnc(NS(=O)(=O)c2ccc(NC(=O)COc3ccc4ccccc4c3)cc2)s1 | inactive |
| CCCCCOC(=O)CSc1nc2c(c(=O)[nH]c(=O)n2C)n1CCc1ccccc1 | inconclusive: 8.91 µM [inhibitor, partial curve, poor fit] |
| O=C(CN1CCCCCC1)N1c2ccccc2Sc2ccccc21 | inconclusive: 100 µM [inhibitor, single point] |
| CC1(C(=O)NC(=S)NNC(=O)c2ccncc2)CCCCC1 | inconclusive: 6.31 µM [inhibitor, full curve, poor fit] |
| Cc1cc(C)c(S(=O)(=O)N2CC(c3nc(Cc4ccccc4)no3)C2)cc1C | inactive |
| CCOc1cc(C=O)cc(Br)c1OC(=O)c1ccc(OC)cc1 | inconclusive: 25.1 µM [inhibitor, single point] |
| O=C(NNC(=S)NC(=O)c1ccccc1[N+](=O)[O-])c1ccc(Cl)cc1Cl | inconclusive: 50.1 µM [inhibitor, partial curve, poor fit] |
| CN(C)c1nc2c(c(N)nn2-c2ccc(Cl)cc2)c(=O)o1 | inconclusive: 0.251 µM [inhibitor, full curve, poor fit] |

4 structures out of the list, ordered by heavy-atom count, low to high:

| SMILES | Potency |
| --- | --- |
| Cc1nn(C)c(C(=O)NC(=S)Nc2ccccc2Br)c1Cl | inconclusive: 3.55 µM [inhibitor, partial curve, poor fit] |
| O=C(CN1CC2CC(C1)[C@H]1CCCC(=O)N1C2)N1CCCC1 (stereo not given in full) | inconclusive: 1 µM [inhibitor, full curve, poor fit] |
| O=C(CN1CCCCCC1)N1c2ccccc2Sc2ccccc21 | inconclusive: 100 µM [inhibitor, single point] |
| Cc1cc(C)c(S(=O)(=O)N2CC(c3nc(Cc4ccccc4)no3)C2)cc1C | inactive |
